The source of these data is publication PMC4755750.

These are yes or no findings as the source states them, for the method shown. In cells and extracts the contact can be indirect. Where a sequence is shown, tags or fusion partners need not be part of it.

This assay deals with T1, CIDEA-HA (mouse) (UniProt O70302).
T1 sequence: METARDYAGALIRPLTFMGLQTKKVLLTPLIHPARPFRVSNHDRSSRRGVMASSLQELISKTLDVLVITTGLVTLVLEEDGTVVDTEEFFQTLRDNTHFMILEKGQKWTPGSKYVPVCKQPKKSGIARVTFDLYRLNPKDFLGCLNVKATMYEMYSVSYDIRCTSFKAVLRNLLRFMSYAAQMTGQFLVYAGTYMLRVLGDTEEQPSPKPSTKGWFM
The assay is described as follows: co-IP; anti-HA or anti-V5 antibody on Dynabeads Protein G incubated with lysate of transfected cells (Hela named for Figure 6K); lysis in 50 mM Tris pH 8.0, 150 mM NaCl, 1% TRITON X-100; Western blot.

With hLIPIN-1γ-v5 (human) (enzyme), the binding result is “no binding”.
